Laboratory results: US20220242904A1
Results are given in words; binding and its absence hold for the method and conditions named. Some binding calls cover weakened binding; strength is not graded here.

Amino acid sequences for entries named in this document (tags omitted).
UniProt P05556: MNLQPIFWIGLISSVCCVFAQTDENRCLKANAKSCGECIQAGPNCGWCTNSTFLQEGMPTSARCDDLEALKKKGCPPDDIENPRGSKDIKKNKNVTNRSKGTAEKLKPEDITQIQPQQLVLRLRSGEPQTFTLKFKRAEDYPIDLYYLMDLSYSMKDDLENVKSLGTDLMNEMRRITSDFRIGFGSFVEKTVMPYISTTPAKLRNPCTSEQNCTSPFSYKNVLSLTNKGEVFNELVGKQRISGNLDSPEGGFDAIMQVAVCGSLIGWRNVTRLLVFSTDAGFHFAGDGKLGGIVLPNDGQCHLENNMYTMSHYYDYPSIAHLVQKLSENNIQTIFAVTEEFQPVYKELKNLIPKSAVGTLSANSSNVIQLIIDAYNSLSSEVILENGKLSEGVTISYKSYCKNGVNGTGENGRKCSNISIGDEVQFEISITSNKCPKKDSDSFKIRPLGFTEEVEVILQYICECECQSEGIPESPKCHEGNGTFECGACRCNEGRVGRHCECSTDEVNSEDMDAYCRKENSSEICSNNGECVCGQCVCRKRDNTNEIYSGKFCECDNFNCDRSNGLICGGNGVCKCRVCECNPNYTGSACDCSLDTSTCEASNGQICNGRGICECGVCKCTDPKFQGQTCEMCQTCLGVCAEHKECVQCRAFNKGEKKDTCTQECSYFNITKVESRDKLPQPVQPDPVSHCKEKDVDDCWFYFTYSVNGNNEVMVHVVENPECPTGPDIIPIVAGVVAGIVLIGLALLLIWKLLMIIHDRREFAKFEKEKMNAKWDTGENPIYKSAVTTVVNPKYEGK

Target: integrin beta 1 (of HT29 colonic epithelial cells) (UniProt P05556)
Assay: immunoprecipitation with anti-biotin antibody from HT29 cells treated with biotin-labeled peptide (200 and 400 µg/ml), western blot with anti-integrin antibodies

YGLRSKSKKFRRPDIQYPDAT (labeled with biotin (position not given)) [peptide of SEQ ID NO: 1 labeled with biotin] was tested, and the binding was “binds”.
